This continues a long series; more values of the same kind are listed elsewhere.
Test system: subjects with moderately to severely active RA who have an inadequate response to methotrexate (MTX)
Test: Study 1 (add-on to MTX) - Creatinine levels
Assay type: in vivo, human
Protocol: Double-blind, placebo-controlled add on study in subjects with moderately to severely active RA who have an inadequate response to methotrexate (MTX) (oral or parenteral).
595 subjects randomized to one of 6 dose regimens of Compound 1 (dosed as [Compound 1:HCl:3H2O]) (3 dose levels administered either once or twice daily) or placebo on top of each subject's stable dose of MTX.
Compound 1 (dosed as [Compound 1:HCl:3H2O]) is dosed for twelve weeks once daily (q.d.) (50 mg, 100 mg or 200 mg) or twice daily (b.i.d.) (25 mg, 50 mg or 100 mg); or placebo.
At Week 12, the subjects on placebo who have not achieved 20% improvement in swollen joint count (SJC66) and tender joint count (TJC68) are re-randomized automatically to receive Compound 1 (dosed as a [Compound 1:HCl:3H2O]) either at 100 mg q.d. or 50 mg b.i.d. doses in a blinded fashion; subjects on 50 mg q.d. who have not achieved 20% improvement in SJC66 and TJC68 will be assigned to 100 mg q.d. and subjects on 25 mg b.i.d. that have not achieved a 20% improvement in SJC66 and TJC68 will be assigned to 50 mg b.i.d. Subjects who switch treatment at week 12 are handled as if they discontinued at week 12 for the purpose of statistical analysis, whereas subjects in the other groups will maintain their randomized treatment until Week 24.
Creatinine levels determination is available at Quest Diagnostics, Clinical Trials, Quest House, 125-135 Staines Road, Hounslow, Middlesex, TW3 3JB, United Kingdom under Catalogue n# 82565. For Study 3, the data are obtained at BARC Europe, 3B,Industrie Park, Zwijnaarde, B-9052 Ghent, Belgium.
The Enzymatic method is based on the determination of sarcosine after conversion of creatinine with the aid of creatininase, creatinase, and sarcosine oxidase. The liberated hydrogen peroxide reacts with 4-aminophenazone and HTIB to form a quinone imine chromogen. The reaction is catalyzed by peroxidase. The color intensity is directly proportional to concentration of creatinine present and can be measured photometrically.

[1] = continued 100 mg q.d. (N = 85), week 8
[2] = continued 100 mg q.d. (N = 85), week 12
[3] = continued 100 mg q.d. (N = 85), week 16
[4] = continued 100 mg q.d. (N = 85), week 20
[5] = continued 100 mg q.d. (N = 85), week 24
[6] = continued 200 mg q.d. (N = 86), week 0
[7] = continued 200 mg q.d. (N = 86), week 1
[8] = continued 200 mg q.d. (N = 86), week 2
[9] = continued 200 mg q.d. (N = 86), week 4
[10] = continued 200 mg q.d. (N = 86), week 8
[11] = continued 200 mg q.d. (N = 86), week 12
[12] = continued 200 mg q.d. (N = 86), week 16
[13] = continued 200 mg q.d. (N = 86), week 20
[14] = continued 200 mg q.d. (N = 86), week 24
[15] = increased from 25 mg b.i.d. to 50 mg b.i.d. at 12 weeks (N = 17), week 0
[16] = increased from 25 mg b.i.d. to 50 mg b.i.d. at 12 weeks (N = 17), week 1
[17] = increased from 25 mg b.i.d. to 50 mg b.i.d. at 12 weeks (N = 17), week 2
[18] = increased from 25 mg b.i.d. to 50 mg b.i.d. at 12 weeks (N = 17), week 4
[19] = increased from 25 mg b.i.d. to 50 mg b.i.d. at 12 weeks (N = 17), week 8
[20] = increased from 25 mg b.i.d. to 50 mg b.i.d. at 12 weeks (N = 17), week 12
[21] = increased from 25 mg b.i.d. to 50 mg b.i.d. at 12 weeks (N = 17), week 16
[22] = increased from 25 mg b.i.d. to 50 mg b.i.d. at 12 weeks (N = 17), week 20
[23] = increased from 25 mg b.i.d. to 50 mg b.i.d. at 12 weeks (N = 17), week 24
[24] = increased from 50 mg q.d. to 100 mg q.d. at 12 weeks (N = 19), week 0
[25] = increased from 50 mg q.d. to 100 mg q.d. at 12 weeks (N = 19), week 1
[26] = increased from 50 mg q.d. to 100 mg q.d. at 12 weeks (N = 19), week 2
[27] = increased from 50 mg q.d. to 100 mg q.d. at 12 weeks (N = 19), week 4
[28] = increased from 50 mg q.d. to 100 mg q.d. at 12 weeks (N = 19), week 8
[29] = increased from 50 mg q.d. to 100 mg q.d. at 12 weeks (N = 19), week 12
[30] = increased from 50 mg q.d. to 100 mg q.d. at 12 weeks (N = 19), week 16
[31] = increased from 50 mg q.d. to 100 mg q.d. at 12 weeks (N = 19), week 20
[32] = increased from 50 mg q.d. to 100 mg q.d. at 12 weeks (N = 19), week 24
[33] = placebo switched to 100 mg q.d. at week 12 (N = 15), week 16
[34] = placebo switched to 100 mg q.d. at week 12 (N = 15), week 20
[35] = placebo switched to 100 mg q.d. at week 12 (N = 15), week 24

O=C(Nc1nc2cccc(-c3ccc(CN4CCS(=O)(=O)CC4)cc3)n2n1)C1CC1 [Compound 1, cyclopropanecarboxylic acid {5-[4-(1,1-dioxo-thiomorpholin-4-ylmethyl)-phenyl]-[1,2,4]triazolo[1,5-a]pyridin-2-yl}-amide]
Creatinine Mean percentage CFB (continued 100 mg q.d. (N = 85), week 4): 3.5%
Creatinine Mean CFB [1]: 1.9 µmol/L
Creatinine Mean percentage CFB [1]: 3.8%
Creatinine Mean CFB [2]: 3.8 µmol/L
Creatinine Mean percentage CFB [2]: 6.8%
Creatinine Mean CFB [3]: 2.3 µmol/L
Creatinine Mean percentage CFB [3]: 4.8%
Creatinine Mean CFB [4]: 2.9 µmol/L
Creatinine Mean percentage CFB [4]: 5.4%
Creatinine Mean CFB [5]: 1.5 µmol/L
Creatinine Mean percentage CFB [5]: 3.8%
Creatinine Mean CFB [6]: 0.0 µmol/L
Creatinine Mean percentage CFB [6]: 0.0%
Creatinine Mean CFB [7]: 3.0 µmol/L
Creatinine Mean percentage CFB [7]: 5.7%
Creatinine Mean CFB [8]: 3.1 µmol/L
Creatinine Mean percentage CFB [8]: 5.8%
Creatinine Mean CFB [9]: 3.7 µmol/L
Creatinine Mean percentage CFB [9]: 7.0%
Creatinine Mean CFB [10]: 4.1 µmol/L
Creatinine Mean percentage CFB [10]: 7.4%
Creatinine Mean CFB [11]: 4.1 µmol/L
Creatinine Mean percentage CFB [11]: 7.7%
Creatinine Mean CFB [12]: 4.8 µmol/L
Creatinine Mean percentage CFB [12]: 8.7%
Creatinine Mean CFB [13]: 4.6 µmol/L
Creatinine Mean percentage CFB [13]: 8.5%
Creatinine Mean CFB [14]: 3.2 µmol/L
Creatinine Mean percentage CFB [14]: 6.0%
Creatinine Mean CFB [15]: 0.0 µmol/L
Creatinine Mean percentage CFB [15]: 0.0%
Creatinine Mean CFB [16]: 0.4 µmol/L
Creatinine Mean percentage CFB [16]: 0.8%
Creatinine Mean CFB [17]: 0.2 µmol/L
Creatinine Mean percentage CFB [17]: 0.3%
Creatinine Mean CFB [18]: -0.6 µmol/L
Creatinine Mean percentage CFB [18]: −0.4%
Creatinine Mean CFB [19]: 1.8 µmol/L
Creatinine Mean percentage CFB [19]: 3.9%
Creatinine Mean CFB [20]: 0.2 µmol/L
Creatinine Mean percentage CFB [20]: 0.4%
Creatinine Mean CFB [21]: 3.8 µmol/L
Creatinine Mean percentage CFB [21]: 7.6%
Creatinine Mean CFB [22]: 1.7 µmol/L
Creatinine Mean percentage CFB [22]: 4.8%
Creatinine Mean CFB [23]: 0.5 µmol/L
Creatinine Mean percentage CFB [23]: 1.4%
Creatinine Mean CFB [24]: 0.0 µmol/L
Creatinine Mean percentage CFB [24]: 0.0%
Creatinine Mean CFB [25]: 0.7 µmol/L
Creatinine Mean percentage CFB [25]: 1.5%
Creatinine Mean CFB [26]: 1.8 µmol/L
Creatinine Mean percentage CFB [26]: 3.0%
Creatinine Mean CFB [27]: 2.5 µmol/L
Creatinine Mean percentage CFB [27]: 3.9%
Creatinine Mean CFB [28]: 2.6 µmol/L
Creatinine Mean percentage CFB [28]: 4.1%
Creatinine Mean CFB [29]: 0.6 µmol/L
Creatinine Mean percentage CFB [29]: 1.9%
Creatinine Mean CFB [30]: 4.5 µmol/L
Creatinine Mean percentage CFB [30]: 8.0%
Creatinine Mean CFB [31]: 2.9 µmol/L
Creatinine Mean percentage CFB [31]: 5.2%
Creatinine Mean CFB [32]: 2.2 µmol/L
Creatinine Mean percentage CFB [32]: 3.7%
Creatinine Mean CFB [33]: 3.0 µmol/L
Creatinine Mean percentage CFB [33]: 6.4%
Creatinine Mean CFB [34]: 1.9 µmol/L
Creatinine Mean percentage CFB [34]: 4.3%
Creatinine Mean CFB [35]: 3.0 µmol/L
Creatinine Mean percentage CFB [35]: 5.9%
